From article PMC7672466, “Biophysical analysis of Pseudomonas-phage PaP3 small terminase suggests a mechanism for sequence-specific DNA-binding by lateral interdigitation”
Positions count from the first letter of the chain named. The comparison behind a weaker result is the experiment's own reference, which may not be listed here. Protein sequences can lack the tags named with them.

Legend:
[1] = molecular target: T1, PaP3 TM-TerS K17A,K19A,K33A (Pseudomonas phage PaP3) (UniProt Q8H9R5); assay: EMSA; conditions: agarose gel, 0-40 uM TerS, disrupted more than DM; EMSA: incubation 37 C 30 min (binding buffer not stated; proteins in GF buffer 20 mM Tris-HCl pH 7.5, 150 mM NaCl, 5 mM bME, 2.5% glycerol); recombinant protein; residues 1-152; protein details: GST removed by PreScission protease; label: 5' Cy3 on both strands
T1 sequence (looked up): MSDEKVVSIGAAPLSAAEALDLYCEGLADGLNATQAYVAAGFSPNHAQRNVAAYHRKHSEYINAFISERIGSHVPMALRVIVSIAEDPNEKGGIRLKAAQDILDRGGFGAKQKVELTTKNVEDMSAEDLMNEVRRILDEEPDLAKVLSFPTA

[2] = molecular target: T2, PaP3 TerS WT (small terminase, peak 2) (Pseudomonas phage PaP3) (UniProt Q8H9R5); assay: EMSA; conditions: agarose gel, 0-40 uM TerS, cos bound with significantly higher affinity; EMSA: incubation 37 C 30 min (binding buffer not stated; proteins in GF buffer 20 mM Tris-HCl pH 7.5, 150 mM NaCl, 5 mM bME, 2.5% glycerol); recombinant protein; residues 1-152; protein details: GST removed by PreScission protease; label: 5' Cy3
T2 sequence (looked up): T1 sequence (looked up) with A17K, A19K, A33K

Row | Sequence | binding result [1] | binding result [2]
1 | GCCGGCCCCTTTCCGCGTTA (double strand) [Cy3-cos] | binds more weakly | 
2 | GCACTGCAGTAACTTGTCAGTCAT (double strand) [Cy3-scr] |  | binds more weakly
